Experimental data as given in ChEMBL document CHEMBL4811258, “Potent Antimalarials with Development Potential Identified by Structure-Guided Computational Optimization of a Pyrrole-Based Dihydroorotate Dehydrogenase Inhibitor Series” (J Med Chem, 2021).

Assays:
[1] = mouse, plasma
[2] = human, plasma
[3] = Sprague-Dawley, rat, in vivo, po, 10 mg/kg, 24 h
[4] = rat, plasma
Plasmodium falciparum = conditions: 3D70087/N9, time 4.0 day

Structure (SMILES) | PPB [1] [%] | PPB [2] [%] | F [3] [%] | PPB [4] [%] | AUCED90 (Plasmodium falciparum) [µM·h]
Cc1c(C2(c3ccc(C(F)(F)F)c(C#N)c3)CC2)c[nH]c1C(=O)NC(C)c1nc[nH]n1 (stereo in doubt; form 1) [listing 1 of 2 here] | 97.9 | 98.5 | 73 | 98.2 | 
Cc1c(C2(c3ccc(C(F)(F)F)c(C#N)c3)CC2)c[nH]c1C(=O)NC(C)c1nc[nH]n1 (stereo in doubt; form 1) [listing 2 of 2 here] |  |  |  |  | < 16
